In patent US12066428B2, “Cell-substrate impedance monitoring of cancer cells” (Agilent Technologies, Inc., priority 2016, dated 2024):
Where two headings read alike, the source gives them in different places.

How the values were obtained:
Assay in all cases: cells
[1] = tested on: NIH3T3 cells; conditions: Mus musculus, NIH3T3, 48 h, read-out: IC-50 RE-CES
[2] = tested on: HepG2 cells; conditions: Homo sapiens, HepG2, 48 h, read-out: IC-50 MTT Assay
[3] = tested on: HUEVEC cells; conditions: 48 h, read-out: IC-50 RE-CES
[4] = tested on: HepG2 cells; conditions: Homo sapiens, HepG2, 48 h, read-out: IC-50 RE-CES
[5] = tested on: HUEVEC cells; conditions: 48 h, read-out: IC-50 MTT Assay
[6] = tested on: HT1080 cells; conditions: Homo sapiens, HT-1080, 48 h, read-out: IC-50 RE-CES

IC50 [2]: 16.2 µM | IC50 [3]: 7.5 µM | IC50 [4]: 15.2 µM | IC50 [6]: 22.4 µM
SMILES: CC/C(=C(\c1ccccc1)c1ccc(OCCN(C)C)cc1)c1ccccc1 [Tamoxifen]
IC50 [1]: 16 µM | IC50 [5]: 8 µM
